{"source": "patent US20080200404A1", "about": "“Novel Antimalarial 9A-Carbamoyl-Aminoalkyl and 9A-Thiocarbamoyl-Aminoalkyl Azalides” (priority 2005, published 2008)", "tested_on": "Plasmodium falciparum clone CDC/Sierra Leone I (D-6)", "test": "In vitro antimalarial [3H]-hypoxanthine incorporation serial dilution assay, D6", "format": "cell-based", "conditions": "P. falciparum D6, 72 hours exposure; compared with azithromycin", "from_the_text": "The in vitro screens for intrinsic antimalarial activity were based on modifications of the procedures described by Desjardins R E, Canfield C J, Haynes J D, Chulay J D. (Quantitative assessment of antimalarial activity in vitro by a semiautomated microdilution technique. Antimicrob Agents Chemother. 1979 December; 16(6):710-8.), Chulay J D, Haynes J D, Diggs C L. (Plasmodium falciparum: Assessment of in vitro growth by [3H]hypoxanthine incorporation. Exp. Parasitol. 1983 55:138-146.), and Milhous W K, Weatherly N F, Bowdre J H, Desjardins R E. (In vitro activities of and mechanisms of resistance to antifol antimalarial drugs. Antimicrob Agents Chemother. 1985 April; 27(4):525-30.). […]\nAfter the preincubation, [^3H]-hypoxanthine was added to each well of the MTP. […] The radioactivity was counted on a Packard TopCount™ microplate scintillation counter. The results were recorded as counts per minutes (CPM) per well at each drug concentration divided by the arithmetic mean of the CPM from the three untreated infection parasite control wells.\nThe serial dilution assay was conducted using the same assay conditions and stock solution of the compound used for the preliminary screen, described above. […] For each assay, the IC50 for each clone was determined against the known antimalarials chloroquine and mefloquine. […]", "note": "At least one structure is not confirmed: it was looked up by name or label, or the drawing left a doubt.", "data": [{"compound": "CC[C@H]1OC(=O)[C@H](C)[C@@H](O[C@H]2C[C@@](C)(OC)[C@@H](O)[C@H](C)O2)[C@H](C)[C@@H](O[C@@H]2O[C@H](C)C[C@H](N(C)C)[C@H]2O)[C@](C)(O)C[C@@H](C)CN(CCNC(=O)NC(C)C)[C@H](C)[C@@H](O)[C@]1(C)O", "note": "[Example 1, 9-Deoxo-9-dihydro-9a-(N′-isopropylcarbamoyl-β-aminoethyl)-9a-aza-9a-homoerythromycin A]", "values": [{"measurement": "IC50 D6 (class symbol)", "value": "NA (less active than azithromycin)"}]}]}
